Data as given in PubChem BioAssay AID1508588 (Peter MacCallum Cancer Centre, 2020)
Test: 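Genome-wide search for knock-downs that heighten vemurafenib action in melanoma cells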 (primary screen). System: human WM266.4 melanoma cells (BRAF V600 mutant). Knock-down reagent: siRNA pool against human genes, 40 nM. Time to read-out: 96 h from transfection to read-out. Treatment: vemurafenib 300 nM (about IC25), added 48 h after transfection, for 48 h; comparison arm got DMSO vehicle only. Detection: 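Ratios to non-targeting siRNA for cell gain, counted as DAPI nuclei after minus before drug and averaged over two replicates, and for absorbance-read medium lactate per cell; both binned into fold-change classes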. Reading the numbers: cell gain with vemurafenib: higher = more cell gain than with non-targeting siRNA; lactate per cell with vemurafenib: higher = more lactate made per cell. Call rule: 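a knock-down counts as enhancing when its fold-change classes with vehicle and with vemurafenib, taken together, show a stronger drug effect on cell gain or lactate per cell; exact class pairs not stated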. Calls: active = enhances vemurafenib effect; inactive = no enhancement seen.
The whole screen tested about 18,000 reagents; this is an unselected part. 790 of them (4.4%) were called active. 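Calls rest on a combination of fold-change classes in drug and vehicle arms, not all shown here.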 Reagent sequences are not shown.

The opening 4 records as a preview:
| Target gene | cell gain with vemurafenib | lactate per cell with vemurafenib | activity call |
| --- | --- | --- | --- |
| ASF1B (anti-silencing function 1B histone chaperone) | 0.41 | 1.27 | inactive |
| LINC00336 (long independently transcribed non-coding RNA 336) | 1.07 | 0.73 | inactive |
| SNRNP35 (small nuclear ribonucleoprotein U11/U12 subunit 35) | 0.49 | 0.98 | inactive |
| TREH (trehalase) | -0.03 | 1.23 | inactive |

The listing, from the first entry:
| Target gene | cell gain with vemurafenib | lactate per cell with vemurafenib | activity call |
| --- | --- | --- | --- |
| ASF1B (anti-silencing function 1B histone chaperone) | 0.41 | 1.27 | inactive |
| LINC00336 (long independently transcribed non-coding RNA 336) | 1.07 | 0.73 | inactive |
| SNRNP35 (small nuclear ribonucleoprotein U11/U12 subunit 35) | 0.49 | 0.98 | inactive |
| TREH (trehalase) | -0.03 | 1.23 | inactive |
| ELOVL5 (ELOVL fatty acid elongase 5) | 0.88 | 1.06 | inactive |
| RABEP2 (rabaptin, RAB GTPase binding effector protein 2) | 0.87 | 1.77 | inactive |
| HES5 (hes family bHLH transcription factor 5) | 0.56 | 1.02 | inactive |
| H2AC20 (H2A clustered histone 20) | 0.89 | 0.92 | inactive |
| NEXN (nexilin F-actin binding protein) | 0.05 | 2.2 | inactive |
| BST1 (bone marrow stromal cell antigen 1) | 0.79 | 0.88 | inactive |
| TREML4 (triggering receptor expressed on myeloid cells like 4) | 0.47 | 1.18 | inactive |
| TMED1 (transmembrane p24 trafficking protein 1) | 0.69 | 0.59 | inactive |
| GPIHBP1 | 0.71 | 1 | inactive |
| DUSP4 (dual specificity phosphatase 4) | 0.7 | 4.12 | inactive |
| AMPD2 (adenosine monophosphate deaminase 2) | 0.36 | 1.7 | inactive |
| TALDO1 (transaldolase 1) | 0.77 | 0.94 | inactive |
| NPAS2 (neuronal PAS domain protein 2) | 0.67 | 0.48 | inactive |
| VPS53 (VPS53 subunit of GARP complex) | 0.63 | 0.9 | inactive |
| STS (steroid sulfatase) | 0.26 | 1.73 | inactive |
| LYSMD2 (LysM domain containing 2) | 1.01 | 1.7 | inactive |
| H2AC25 (H2A clustered histone 25) | 0.35 | 0.84 | inactive |
| SLC52A3 | 0.7 | 1.4 | inactive |
| UCN2 (urocortin 2) | 0.35 | 2.2 | inactive |
| CBLL1 (Cbl proto-oncogene like 1) | 0.68 | 0.61 | inactive |
| ANTKMT (adenine nucleotide translocase lysine methyltransferase) | 0.49 | 0.99 | inactive |
| CRTC1 (CREB regulated transcription coactivator 1) | 0.49 | 1.12 | inactive |
| CHIC2 (cysteine rich hydrophobic domain 2) | 0.95 | 0.74 | inactive |
| PSMB4 (proteasome 20S subunit beta 4) | 0.19 | 2.32 | inactive |
| LAMP5 (lysosome associated membrane protein 5) | 0.82 | 0.55 | inactive |
| VNN3P (vanin 3, pseudogene) | 0.41 | 0.94 | inactive |
| ST6GAL1 (ST6 beta-galactoside alpha-2,6-sialyltransferase 1) | 0.63 | 0.3 | inactive |
| SORBS1 (sorbin and SH3 domain containing 1) | 0.36 | 1.19 | inactive |
| ASTL (astacin like metalloendopeptidase) | 0.2 | 0.76 | inactive |
| ZNF385A (zinc finger protein 385A) | 0.68 | 0.84 | inactive |
